Holding throughout (assay): affinity purification with mass spectrometry
Assay [1] concerns the target BRAHMA (BRM)-GFP (Arabidopsis thaliana), Q6EVK6. The following applies: remark: other sources report otherwise.
The target of assay [2] is BRAHMA (BRM)-GFP (Arabidopsis thaliana) (UniProt Q6EVK6).
Assay [3] concerns the target T1, MINUSCULE 2 (MINU2)-GFP (Arabidopsis thaliana) (UniProt F4K128).
T1 sequence: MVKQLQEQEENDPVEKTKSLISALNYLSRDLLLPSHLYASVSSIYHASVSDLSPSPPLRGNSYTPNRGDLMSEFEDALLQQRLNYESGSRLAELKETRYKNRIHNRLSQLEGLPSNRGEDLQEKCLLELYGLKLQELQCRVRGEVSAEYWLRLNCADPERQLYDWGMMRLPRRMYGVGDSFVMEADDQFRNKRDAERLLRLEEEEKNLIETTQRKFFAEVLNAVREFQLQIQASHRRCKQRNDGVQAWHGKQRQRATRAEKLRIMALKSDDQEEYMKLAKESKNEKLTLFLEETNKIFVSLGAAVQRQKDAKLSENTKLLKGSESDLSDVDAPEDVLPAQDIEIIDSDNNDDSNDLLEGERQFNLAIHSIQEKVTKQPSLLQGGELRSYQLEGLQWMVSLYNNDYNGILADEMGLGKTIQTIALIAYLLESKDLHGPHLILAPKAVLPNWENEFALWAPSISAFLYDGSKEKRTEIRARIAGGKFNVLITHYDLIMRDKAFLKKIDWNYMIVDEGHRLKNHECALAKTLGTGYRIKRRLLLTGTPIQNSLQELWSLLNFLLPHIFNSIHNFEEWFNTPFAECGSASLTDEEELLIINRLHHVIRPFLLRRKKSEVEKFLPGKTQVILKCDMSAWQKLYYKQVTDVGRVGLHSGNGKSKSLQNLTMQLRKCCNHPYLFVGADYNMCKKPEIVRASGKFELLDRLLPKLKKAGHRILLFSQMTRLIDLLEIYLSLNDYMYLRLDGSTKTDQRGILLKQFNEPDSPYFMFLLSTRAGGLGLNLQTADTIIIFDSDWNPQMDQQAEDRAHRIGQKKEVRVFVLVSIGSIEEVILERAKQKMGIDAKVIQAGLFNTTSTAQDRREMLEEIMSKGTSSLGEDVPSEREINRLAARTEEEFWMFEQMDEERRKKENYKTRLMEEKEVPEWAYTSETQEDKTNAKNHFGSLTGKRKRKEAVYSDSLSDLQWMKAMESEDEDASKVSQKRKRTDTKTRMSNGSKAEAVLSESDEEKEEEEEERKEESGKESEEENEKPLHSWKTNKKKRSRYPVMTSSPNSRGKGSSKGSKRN

Amino acid sequences for entries named in this document (tags omitted).
UniProt Q6EVK6: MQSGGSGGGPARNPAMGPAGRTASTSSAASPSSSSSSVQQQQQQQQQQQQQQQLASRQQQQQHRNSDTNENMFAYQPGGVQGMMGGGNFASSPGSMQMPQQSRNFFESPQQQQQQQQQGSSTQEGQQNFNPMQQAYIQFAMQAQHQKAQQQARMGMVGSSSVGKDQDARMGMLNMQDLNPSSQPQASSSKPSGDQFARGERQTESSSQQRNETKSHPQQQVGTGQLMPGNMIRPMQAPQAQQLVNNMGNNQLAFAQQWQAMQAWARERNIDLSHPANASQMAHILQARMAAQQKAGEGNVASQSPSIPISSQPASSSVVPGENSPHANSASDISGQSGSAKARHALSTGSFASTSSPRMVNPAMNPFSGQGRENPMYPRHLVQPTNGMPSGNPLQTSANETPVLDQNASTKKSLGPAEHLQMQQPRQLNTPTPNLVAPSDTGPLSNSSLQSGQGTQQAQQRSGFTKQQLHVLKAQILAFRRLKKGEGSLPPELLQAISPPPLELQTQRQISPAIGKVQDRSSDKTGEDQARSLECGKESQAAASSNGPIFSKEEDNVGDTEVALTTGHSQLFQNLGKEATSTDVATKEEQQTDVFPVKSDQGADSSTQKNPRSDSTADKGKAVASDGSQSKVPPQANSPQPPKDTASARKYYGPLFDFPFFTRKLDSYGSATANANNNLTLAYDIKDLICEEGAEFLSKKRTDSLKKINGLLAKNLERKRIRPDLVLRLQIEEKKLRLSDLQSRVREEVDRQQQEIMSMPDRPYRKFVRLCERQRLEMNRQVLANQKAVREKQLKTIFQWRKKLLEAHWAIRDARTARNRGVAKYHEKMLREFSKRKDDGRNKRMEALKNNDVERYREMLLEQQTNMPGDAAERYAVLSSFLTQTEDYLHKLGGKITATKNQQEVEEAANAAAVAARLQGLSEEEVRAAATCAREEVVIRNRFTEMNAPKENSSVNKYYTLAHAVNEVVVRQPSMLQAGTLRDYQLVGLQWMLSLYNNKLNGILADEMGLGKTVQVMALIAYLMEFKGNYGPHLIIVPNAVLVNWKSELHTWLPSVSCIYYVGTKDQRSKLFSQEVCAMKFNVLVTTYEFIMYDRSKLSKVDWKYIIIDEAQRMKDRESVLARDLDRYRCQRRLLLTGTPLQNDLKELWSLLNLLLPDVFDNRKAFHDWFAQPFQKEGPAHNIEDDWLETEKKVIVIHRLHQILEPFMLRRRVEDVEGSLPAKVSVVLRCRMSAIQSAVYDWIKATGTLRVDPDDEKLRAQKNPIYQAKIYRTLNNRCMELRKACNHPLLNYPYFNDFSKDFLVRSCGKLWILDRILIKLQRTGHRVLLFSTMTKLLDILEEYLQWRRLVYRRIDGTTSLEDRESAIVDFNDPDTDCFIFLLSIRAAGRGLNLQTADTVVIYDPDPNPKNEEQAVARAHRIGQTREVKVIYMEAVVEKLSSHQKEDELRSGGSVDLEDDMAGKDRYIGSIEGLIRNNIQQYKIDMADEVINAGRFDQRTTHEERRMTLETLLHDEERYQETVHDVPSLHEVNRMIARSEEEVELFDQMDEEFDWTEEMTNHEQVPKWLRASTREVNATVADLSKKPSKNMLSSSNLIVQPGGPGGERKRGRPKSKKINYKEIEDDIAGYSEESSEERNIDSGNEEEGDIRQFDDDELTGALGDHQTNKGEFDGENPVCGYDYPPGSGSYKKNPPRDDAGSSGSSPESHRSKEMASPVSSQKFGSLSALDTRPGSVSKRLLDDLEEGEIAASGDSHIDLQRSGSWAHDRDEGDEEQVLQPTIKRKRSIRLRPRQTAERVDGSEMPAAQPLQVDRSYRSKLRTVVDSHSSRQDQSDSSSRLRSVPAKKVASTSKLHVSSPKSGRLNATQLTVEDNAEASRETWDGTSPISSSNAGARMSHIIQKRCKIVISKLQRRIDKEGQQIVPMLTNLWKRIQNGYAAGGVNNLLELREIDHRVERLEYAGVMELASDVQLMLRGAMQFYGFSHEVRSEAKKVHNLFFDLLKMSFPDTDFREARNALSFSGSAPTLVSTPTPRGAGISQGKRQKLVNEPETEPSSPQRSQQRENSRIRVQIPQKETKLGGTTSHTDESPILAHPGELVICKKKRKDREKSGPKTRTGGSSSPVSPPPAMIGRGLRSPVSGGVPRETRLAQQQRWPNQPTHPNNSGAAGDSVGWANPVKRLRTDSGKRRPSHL

Results are given in words; binding and its absence hold for the method and conditions named. In cells and extracts the contact can be indirect. These calls come from enrichment with a bait or labelling near it, and not all partners need be listed. No binding means not detected with the bait. For some of these results: Where a sequence is shown, tags or fusion partners need not be part of it.

B1: SWI3A, Q8W475 1-512 (protein)
chain: MEATDPSAEIELYTIPAQSSWFLWDDIHEIERREFAEFFTESSITRTPKVYKEYRDFIINKFREDTCRRLTFTSVRKFLVGDVNLLQKVFLFLEKWGLINFSSSLKKNDHLLSVDNAKIEQGTPAGIRVTATPNSLRPITAPPLVEERVETGIKVPPLTSYSDVFSDLKKPDHVLVCAHCGERCDSPFYQHNKGIVNICEKCFKNGNYGENNTADDFKLIGNSAAAVWTEEEILLLLESVLKHGDDWELISQSVSTKSRLDCISKLIELPFGEFLMGSASGRLNPSILTEDENTEQVQTDGQEHEETETREEKEDRVNEDEPPAKRKRVALISEGDSSLMKQVAAMASKVGPSVATAAAKAALAALCDEASCPKEIFDTDDYSNFTVDRANGEKDTDMEEQQEEKDGPQGLPVALRIRASVATALGAAAAQAKILADQEEREMEQLAATVIEQQLKKLQSKLKFLDDLESIMDEEEKVIEGVKETIIQERVSVLQCAFRSGITKRWDHTYVK
For B1, the binding entry in assay [1] was “no binding”.

B2: LEAF AND FLOWER RELATED (LFR) (protein, UniProt Q9LS90 1-460)
chain: MQKRELGKSGGNSGGSSGPPAKRGRPFGSTSANSAAAAAAAAAADAMSPSALLGPSLLVHNSFVEQNNRRIVLALQSGLKSEVTWALNTLTLLSFKEKEDIRRDVMPLAKIAGLLDALLLIIDDWRDIALPKDLTRGTRVRTLGTNASVTGFGNEYDALASIQPPGSGIGSSAAEALGKKSTGKHQSSQWWMEEDGLFNLDDEGRSEKQMCAIAASNVIRNFSFMPDNEVVMAQHRHCLETVFQCIHDHMTEDEELVTNSLETIVNLAHLMDLRIFSSLKQSYININEKKAVQAVVGILNSSVKAWNCAAAELLGRLIINPDNEPFISPLIPQIHKRLIDLLSIQAVDAQAAAVGALYNLVEVNMDCRLKLASERWAVDRLLKVIKTPHPVPEVCRKAAMILENLVSEPQNRGLLLAYENAFAELLFQEGKYSDSFARILYELTARSNSRVASARGIWGM
As to B2, in assay [2], the binding entry is “no binding”.

B3: SWI3D, Q8VY05 1-985 (protein)
chain: MEEKRRDSAGTLAFAGSSGDSPASEPMPAPRRRGGGLKRKANALGGSNFFSSAPSKRMLTREKAMLASFSPVHNGPLTRARQAPSIMPSAADGVKSEVLNVAVGADGEKPKEEEERNKAIREWEALEAKIEADFEAIRSRDSNVHVVPNHCGWFSWEKIHPLEERSLPSFFNGKLEGRTSEVYREIRNWIMGKFHSNPNIQIELKDLTELEVGDSEAKQEVMEFLDYWGLINFHPFPPTDTGSTASDHDDLGDKESLLNSLYRFQVDEACPPLVHKPRFTAQATPSGLFPDPMAADELLKQEGPAVEYHCNSCSADCSRKRYHCPKQADFDLCTECFNSGKFSSDMSSSDFILMEPAEAPGVGSGKWTDQETLLLLEALEIFKENWNEIAEHVATKTKAQCMLHFLQMPIEDAFLDQIDYKDPISKDTTDLAVSKDDNSVLKDAPEEAENKKRVDEDETMKEVPEPEDGNEEKVSQESSKPGDASEETNEMEAEQKTPKLETAIEERCKDEADENIALKALTEAFEDVGHSSTPEASFSFADLGNPVMGLAAFLVRLAGSDVATASARASIKSLHSNSGMLLATRHCYILEDPPDNKKDPTKSKSCSADAEGNDDNSHKDDQPEEKSKKAEEVSLNSDDREMPDTDTGKETQDSVSEEKQPGSRTENSTTKLDAVQEKRSSKPVTTDNSEKPVDIICPSQDKCSGKELQEPLKDGNKLSSENKDASQSTVSQSAADASQPEASRDVEMKDTLQSEKDPEDVVKTVGEKVQLAKEEGANDVLSTPDKSVSQQPIGSASAPENGTAGGNPNIEGKKEKDICEGTKDKYNIEKLKRAAISAISAAAVKAKNLAKQEEDQIRQLSGSLIEKQLHKLEAKLSIFNEAESLTMRVREQLERSRQRLYHERAQIIAARLGVPPSMSSKASLPTNRIAANFANVAQRPPMGMAFPRPPMPRPPGFPVPGSFVAATTMTGSSDPSPGSDNVSSV
Consider B3, for which, in assay [1], the binding entry is “no binding”.

B4: SWI3C (protein, UniProt Q9XI07 1-807)
chain: MPASEDRRGKWKRKKRGGLSAARKPKQEEEDMEEEDEENNNNNNEEMDDVENADELQQNGGATPDPGLGIGEVVEDSGSRISDFPAVVKRVVIRPHASVMAVVAAERAGLIGETRGQGSLPALENISFGQLQALSTVPADSLDLERSDGSSSAYVISPPPIMDGEGVVKRFGDLVHVLPMHSDWFAPNTVDRLERQVVPQFFSGKSPNHTPESYMEFRNAIVSKYVENPEKTLTISDCQGLVDGVDIEDFARVFRFLDHWGIINYCATAQSHPGPLRDVSDVREDTNGEVNVPSAALTSIDSLIKFDKPNCRHKGGEVYSSLPSLDGDSPDLDIRIREHLCDSHCNHCSRPLPTVYFQSQKKGDILLCCDCFHHGRFVVGHSCLDFVRVDPMKFYGDQDGDNWTDQETLLLLEAVELYNENWVQIADHVGSKSKAQCILHFLRLPVEDGLLDNVEVSGVTNTENPTNGYDHKGTDSNGDLPGYSEQGSDTEIKLPFVKSPNPVMALVAFLASAVGPRVAASCAHESLSVLSEDDRMKSEGMQGKEASLLDGENQQQDGAHKTSSQNGAEAQTPLPQDKVMAAFRAGLSAAATKAKLFADHEEREIQRLSANIVNHQLKRMELKLKQFAEIETLLMKECEQVEKTRQRFSAERARMLSARFGSPGGISPQTNNLQGMSLSTGGNNINSLMHQQHQQQQASATSQPSIIPGFSNNPQVQAQMHFMARQQQQQQQQQQQQQQAFSFGPRLPLNAIQTNAGSTASPNVMFGNNQLNNPAAAGAASINQPSFSHPMVRSSTGSGSGSGLGLN
On to B4, for which the figures for the binding result in assay [2] and in assay [3] were “binds” and “no binding”, respectively.

B5: SWI3B, Q84JG2 1-469 (protein)
chain: MAMKAPDPGGSGEILPSTPSLSETTSGGAAAASKSAQLPSSSSDIDNIHVPSYSSWFSWTDINDCEVRSLPEFFDSRSSSKNPKFYLYLRNSIIKQYRDDHPRKISFTDVRRTLVSDVVSIRRVFDFLDSWGLINYNSSASAKPLKWEEKEAGKSAGDAASEPATTVKETAKRNCNGCKAICSIACFACDKYDLTLCARCYVRSNYRVGINSSEFKRVEISEESKPEWSDKEILLLLEAVMHYGDDWKKVASHVIGRTEKDCVSQFVKLPFGEQFVKESDSEDGLEMFDQIKDSDIPESEGIDKDGSSPNKRIKLTPLADASNPIMAQAAFLSALAGTNVAEAAARAAVRALSDVDYEADKNASRDPNRQDANAASSGETTRNESERAWADAKSLIEKEEHEVEGAIKETVEVEMKKIRDRIVHFEKLDLEMERSRKQLEEVRNLLFVDQLNIFFHTRKARKTEDRIEC
With B5, the binding result in assay [1] is given as “no binding”.

B6: MINUSCULE 2 (MINU2) (protein, UniProt F4K128 1-1064)
chain: MVKQLQEQEENDPVEKTKSLISALNYLSRDLLLPSHLYASVSSIYHASVSDLSPSPPLRGNSYTPNRGDLMSEFEDALLQQRLNYESGSRLAELKETRYKNRIHNRLSQLEGLPSNRGEDLQEKCLLELYGLKLQELQCRVRGEVSAEYWLRLNCADPERQLYDWGMMRLPRRMYGVGDSFVMEADDQFRNKRDAERLLRLEEEEKNLIETTQRKFFAEVLNAVREFQLQIQASHRRCKQRNDGVQAWHGKQRQRATRAEKLRIMALKSDDQEEYMKLAKESKNEKLTLFLEETNKIFVSLGAAVQRQKDAKLSENTKLLKGSESDLSDVDAPEDVLPAQDIEIIDSDNNDDSNDLLEGERQFNLAIHSIQEKVTKQPSLLQGGELRSYQLEGLQWMVSLYNNDYNGILADEMGLGKTIQTIALIAYLLESKDLHGPHLILAPKAVLPNWENEFALWAPSISAFLYDGSKEKRTEIRARIAGGKFNVLITHYDLIMRDKAFLKKIDWNYMIVDEGHRLKNHECALAKTLGTGYRIKRRLLLTGTPIQNSLQELWSLLNFLLPHIFNSIHNFEEWFNTPFAECGSASLTDEEELLIINRLHHVIRPFLLRRKKSEVEKFLPGKTQVILKCDMSAWQKLYYKQVTDVGRVGLHSGNGKSKSLQNLTMQLRKCCNHPYLFVGADYNMCKKPEIVRASGKFELLDRLLPKLKKAGHRILLFSQMTRLIDLLEIYLSLNDYMYLRLDGSTKTDQRGILLKQFNEPDSPYFMFLLSTRAGGLGLNLQTADTIIIFDSDWNPQMDQQAEDRAHRIGQKKEVRVFVLVSIGSIEEVILERAKQKMGIDAKVIQAGLFNTTSTAQDRREMLEEIMSKGTSSLGEDVPSEREINRLAARTEEEFWMFEQMDEERRKKENYKTRLMEEKEVPEWAYTSETQEDKTNAKNHFGSLTGKRKRKEAVYSDSLSDLQWMKAMESEDEDASKVSQKRKRTDTKTRMSNGSKAEAVLSESDEEKEEEEEERKEESGKESEEENEKPLHSWKTNKKKRSRYPVMTSSPNSRGKGSSKGSKRN
With B6, the binding result in assay [2] is “no binding”.

For the origin of these results see publication doi:10.1101/2022.11.24.517835.
